Results are given in words; binding and its absence hold for the method and conditions named. Binding can be weak; no strength is given.

This assay has as its target T1, cytoplasmic domains of Drosophila Syndecan (Sdc), yeast two-hybrid bait (Drosophila) (UniProt P49415).
T1 sequence: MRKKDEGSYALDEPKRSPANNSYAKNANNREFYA
Description: two-hybrid; Matchmaker Two-Hybrid System 3 (Clontech); cytoplasmic Sdc in pGBKT7 as bait in AH109 yeast; library of Drosophila embryonic cDNA fragments in pACT2 as prey; selection on high stringency plates (-Leu -Trp -Ade -His), 30°C, 6-7 days; library screen, hits obtained multiple independent times.
Consider “Daughters against DPP (DAD) (Drosophila)”, for which the binding result is reported as “binds”.

As for ELMO / Ced-12 (Drosophila), the binding entry is recorded as “binds”.

In the case of Twin of M4 (Drosophila), the binding entry was “binds”.

As to “Glutamate Receptor Interacting Protein (GRIP) (Drosophila)”, the binding result is “binds”.

For the substance CG10005 (Drosophila), the binding entry is on record as “binds”.

(Values after article PMC4795781.)
